PubChem BioAssay AID743454, Peter MacCallum Cancer Centre, 2014
The deposit covers about 18,000 reagents; below is a random part of them. 450 of all reagents (2.5%) count as active. 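Single biological run; no consistent viability z cut-off exists, so the class columns, not z-scores, define the calls.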

Assay: 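Search for knock-downs that restore vorinostat killing in resistant colon cancer cells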 (primary screen)
Cells: human HCT116-VR colon cancer cells, selected for vorinostat resistance
Reagent: siRNA pool against human genes, 40 nM siRNA pool
Timing: vorinostat for 24 h, read-out about 72 h after transfection
Conditions: vorinostat at 2.5 µM final
Detection: 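Two measures, CellTiter-Fluor viability and luminescent caspase 3/7 activity, each as fold change against same-plate mock wells, mean of duplicates, then screen-wide robust z-score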
Scale: viability robust z-score: higher = more viable cells than screen typical; caspase robust z-score: higher = more caspase 3/7 activity than screen typical
Call rule: 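a knock-down is a hit when classed RV1 or RV2 for lowered viability, or CA1 or CA2 for caspase activation; those lethal without drug were dropped; hits were retested singly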

After knock-down of SRPK3, the record shows viability hit class no change; caspase hit class no change; viability robust z-score 0.32; caspase robust z-score 1.48; inactive.
Against SP140L the deposit lists viability hit class no change; caspase hit class no change; viability robust z-score -0.06; caspase robust z-score 2.86; inactive.
Against CST3, the values are viability hit class no change; caspase hit class no change; viability robust z-score 0.54; caspase robust z-score 0.28; inactive.
With knock-down of PAK5, the screen gave viability hit class no change; caspase hit class no change; viability robust z-score -0.44; caspase robust z-score 1.12; inactive.
After knock-down of NHEJ1 the results were viability hit class no change; caspase hit class no change; viability robust z-score 0.61; caspase robust z-score 0.5; inactive.
After knock-down of WBP2NL the results were viability hit class no change; caspase hit class no change; viability robust z-score 0.59; caspase robust z-score 0.51; inactive.
Silencing of ZNF181 gave: viability hit class no change; caspase hit class no change; viability robust z-score -0.26; caspase robust z-score -0.62; inactive.
H2BC15 showed viability hit class no change; caspase hit class no change; viability robust z-score 0.96; caspase robust z-score 1.54; inactive.
Depletion of FBXL12 came out at: viability hit class no change; caspase hit class no change; viability robust z-score -0.02; caspase robust z-score 0.55; inactive.
After knock-down of POLR3B the results were viability hit class no change; caspase hit class no change; viability robust z-score -1.48; caspase robust z-score 1.5; inactive.
PHC2 gave viability hit class no change; caspase hit class no change; viability robust z-score -0.27; caspase robust z-score 0.57; inactive.
For FGFR1OP2, the values are viability hit class no change; caspase hit class no change; viability robust z-score 0.93; caspase robust z-score -0.14; inactive.
With knock-down of MTARC1, the record shows viability hit class no change; caspase hit class no change; viability robust z-score 0.1; caspase robust z-score -0.52; inactive.
For CNDP1 the deposit lists viability hit class no change; caspase hit class no change; viability robust z-score -0.58; caspase robust z-score 1.69; inactive.
Silencing of LY6G6C gave: viability hit class no change; caspase hit class no change; viability robust z-score -0.3; caspase robust z-score 1; inactive.
With knock-down of EDC3, the record shows viability hit class no change; caspase hit class no change; viability robust z-score -2.27; caspase robust z-score 0.5; inactive.
Knock-down of GOLGA8A resulted in: viability hit class no change; caspase hit class no change; viability robust z-score -0.71; caspase robust z-score -0.82; inactive.
After knock-down of IRF7, the record shows viability hit class no change; caspase hit class no change; viability robust z-score 0.15; caspase robust z-score 0.48; inactive.
After knock-down of ACOT6 the results were viability hit class no change; caspase hit class no change; viability robust z-score -0.14; caspase robust z-score -0.77; inactive.
Knock-down of FGF16 resulted in: viability hit class no change; caspase hit class no change; viability robust z-score 1.45; caspase robust z-score 0.3; inactive.
Silencing of ARHGEF17 resulted in: viability hit class no change; caspase hit class no change; viability robust z-score 1.04; caspase robust z-score 0.3; inactive.
